Data reported in article PMC11065315.
These are yes or no findings as the source states them, for the method shown. Binding calls can cover weak binding; strength is not graded here.

Biological target: T1, eukaryotic initiation factor 4B (eIF4B), wheat (wheat) (UniProt Q9AUJ7)
T1 sequence: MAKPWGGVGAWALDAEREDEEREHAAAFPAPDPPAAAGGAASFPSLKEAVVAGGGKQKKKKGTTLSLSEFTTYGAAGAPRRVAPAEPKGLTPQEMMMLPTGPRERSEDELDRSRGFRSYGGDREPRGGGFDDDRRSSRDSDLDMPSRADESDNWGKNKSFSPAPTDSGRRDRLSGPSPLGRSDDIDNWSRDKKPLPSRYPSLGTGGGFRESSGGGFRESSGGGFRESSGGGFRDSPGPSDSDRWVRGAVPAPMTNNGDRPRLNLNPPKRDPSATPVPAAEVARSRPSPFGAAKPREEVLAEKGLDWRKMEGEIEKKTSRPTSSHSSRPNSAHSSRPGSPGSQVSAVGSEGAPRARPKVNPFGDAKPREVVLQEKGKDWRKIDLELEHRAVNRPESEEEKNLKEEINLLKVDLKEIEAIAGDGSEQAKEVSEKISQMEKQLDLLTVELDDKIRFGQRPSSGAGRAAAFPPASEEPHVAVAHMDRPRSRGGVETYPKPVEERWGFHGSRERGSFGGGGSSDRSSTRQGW
Assay: other fluorescence titration; 25°C; quenching of the intrinsic fluorescence of the eIFs (excitation 280 nm, emission 334 nm) by increasing VPg; 100 nM eIFs or BSA (results; 500 nM in the methods); 20 mM HEPES/KOH pH 7.6, 100 mM NaCl, 1 mM MgCl2, 1 mM DTT; complexes pre-formed for 15 min; both purified

viral protein genome-linked (VPg) of turnip mosaic virus
binding: binds weakly
